# Literature values, collected in patent US20210355509A1, “ALTERNATIVE SPLICING REGULATION OF GENE EXPRESSION AND THERAPEUTIC METHODS” (THE CHILDREN'S HOSPITAL OF PHILADELPHIA, priority 2018, published 2021).
# The name of at least one read-out is uncertain.
# Details: mice, oral, 3 mg/Kg, serum; cited from earlier work
compound,measurement,value
CC1(C)CC(Oc2ccc(-c3ccc(-c4cn[nH]c4)cc3O)nn2)CC(C)(C)N1 [LMI070],Tmax (Time to reach Cmax),4.3 h
